The other results are listed elsewhere or left out.
What follows are targets tested with COc1ccc(Cn2ccc3ccc(C(=O)NO)cc32)cc1 (assay: dose-dependent thermal stabilisation call (2D-TPP, DLPTP, 10% FDR) (binary (1 = stabilised)); higher = stabilised by the compound). Details: system: HL-60 intact cells; concentration range 0.04-10 µM.

Protein sequences, listed by entry. Tags and fused reporters are not part of them. Lines headed by an entry give the natural chain unless they say otherwise; changes in a name come on top.
UniProt O60231: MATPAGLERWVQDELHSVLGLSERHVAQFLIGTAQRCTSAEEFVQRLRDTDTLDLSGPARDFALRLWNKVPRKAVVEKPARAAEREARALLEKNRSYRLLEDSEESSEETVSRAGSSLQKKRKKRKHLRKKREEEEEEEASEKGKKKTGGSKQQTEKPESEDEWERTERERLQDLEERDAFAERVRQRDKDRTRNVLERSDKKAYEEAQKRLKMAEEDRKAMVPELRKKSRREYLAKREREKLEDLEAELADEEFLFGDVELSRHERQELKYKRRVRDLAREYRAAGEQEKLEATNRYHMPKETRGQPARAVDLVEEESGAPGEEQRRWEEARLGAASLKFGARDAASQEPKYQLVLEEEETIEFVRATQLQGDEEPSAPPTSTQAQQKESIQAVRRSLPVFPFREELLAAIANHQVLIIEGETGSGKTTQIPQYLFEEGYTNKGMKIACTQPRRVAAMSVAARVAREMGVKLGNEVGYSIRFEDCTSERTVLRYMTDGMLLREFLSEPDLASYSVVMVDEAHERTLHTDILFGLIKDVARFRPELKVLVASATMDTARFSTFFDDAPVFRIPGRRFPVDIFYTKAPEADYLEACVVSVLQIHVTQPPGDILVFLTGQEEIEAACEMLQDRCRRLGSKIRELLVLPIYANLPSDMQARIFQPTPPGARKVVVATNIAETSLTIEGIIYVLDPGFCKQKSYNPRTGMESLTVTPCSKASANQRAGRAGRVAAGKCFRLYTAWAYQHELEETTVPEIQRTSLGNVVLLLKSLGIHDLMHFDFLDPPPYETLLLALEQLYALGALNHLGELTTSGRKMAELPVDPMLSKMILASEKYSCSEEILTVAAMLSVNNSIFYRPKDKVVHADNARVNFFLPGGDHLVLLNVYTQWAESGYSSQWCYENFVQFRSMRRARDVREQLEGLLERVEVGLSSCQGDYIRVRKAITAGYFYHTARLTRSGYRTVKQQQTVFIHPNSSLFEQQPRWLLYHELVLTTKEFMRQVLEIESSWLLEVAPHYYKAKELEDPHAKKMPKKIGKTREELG
UniProt O95639, whole entry: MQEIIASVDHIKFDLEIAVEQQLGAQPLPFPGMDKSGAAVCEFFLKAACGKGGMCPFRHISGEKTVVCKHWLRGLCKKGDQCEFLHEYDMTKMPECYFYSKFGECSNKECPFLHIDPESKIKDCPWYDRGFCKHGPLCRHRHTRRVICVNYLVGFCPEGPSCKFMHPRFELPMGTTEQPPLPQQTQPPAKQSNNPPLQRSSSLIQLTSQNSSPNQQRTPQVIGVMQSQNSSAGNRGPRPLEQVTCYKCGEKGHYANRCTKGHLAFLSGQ
UniProt Q05D32: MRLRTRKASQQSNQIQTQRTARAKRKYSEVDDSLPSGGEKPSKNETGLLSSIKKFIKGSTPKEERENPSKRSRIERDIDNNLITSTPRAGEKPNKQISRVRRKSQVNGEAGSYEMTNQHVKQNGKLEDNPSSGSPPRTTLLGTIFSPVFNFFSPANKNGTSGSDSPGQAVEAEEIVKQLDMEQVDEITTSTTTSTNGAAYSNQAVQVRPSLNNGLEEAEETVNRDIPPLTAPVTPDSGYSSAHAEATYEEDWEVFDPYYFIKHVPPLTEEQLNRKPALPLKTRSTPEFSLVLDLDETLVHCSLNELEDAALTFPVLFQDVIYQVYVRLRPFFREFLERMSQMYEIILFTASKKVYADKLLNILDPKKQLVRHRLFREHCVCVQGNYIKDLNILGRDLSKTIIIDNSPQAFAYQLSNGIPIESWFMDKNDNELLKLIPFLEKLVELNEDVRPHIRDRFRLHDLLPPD
UniProt P11182, whole entry: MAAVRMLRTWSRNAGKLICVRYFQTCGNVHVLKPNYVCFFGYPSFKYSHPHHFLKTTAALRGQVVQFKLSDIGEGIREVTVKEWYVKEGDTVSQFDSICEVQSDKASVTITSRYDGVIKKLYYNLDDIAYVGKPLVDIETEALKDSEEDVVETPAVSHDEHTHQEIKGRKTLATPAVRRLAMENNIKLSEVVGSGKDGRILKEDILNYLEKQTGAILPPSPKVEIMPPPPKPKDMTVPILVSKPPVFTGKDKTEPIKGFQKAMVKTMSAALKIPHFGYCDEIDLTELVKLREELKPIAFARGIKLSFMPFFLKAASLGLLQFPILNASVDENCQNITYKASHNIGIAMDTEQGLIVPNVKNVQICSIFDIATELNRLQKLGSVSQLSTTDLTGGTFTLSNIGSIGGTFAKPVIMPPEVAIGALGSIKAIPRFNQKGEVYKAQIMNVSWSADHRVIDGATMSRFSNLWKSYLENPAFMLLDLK
UniProt Q9NRF8: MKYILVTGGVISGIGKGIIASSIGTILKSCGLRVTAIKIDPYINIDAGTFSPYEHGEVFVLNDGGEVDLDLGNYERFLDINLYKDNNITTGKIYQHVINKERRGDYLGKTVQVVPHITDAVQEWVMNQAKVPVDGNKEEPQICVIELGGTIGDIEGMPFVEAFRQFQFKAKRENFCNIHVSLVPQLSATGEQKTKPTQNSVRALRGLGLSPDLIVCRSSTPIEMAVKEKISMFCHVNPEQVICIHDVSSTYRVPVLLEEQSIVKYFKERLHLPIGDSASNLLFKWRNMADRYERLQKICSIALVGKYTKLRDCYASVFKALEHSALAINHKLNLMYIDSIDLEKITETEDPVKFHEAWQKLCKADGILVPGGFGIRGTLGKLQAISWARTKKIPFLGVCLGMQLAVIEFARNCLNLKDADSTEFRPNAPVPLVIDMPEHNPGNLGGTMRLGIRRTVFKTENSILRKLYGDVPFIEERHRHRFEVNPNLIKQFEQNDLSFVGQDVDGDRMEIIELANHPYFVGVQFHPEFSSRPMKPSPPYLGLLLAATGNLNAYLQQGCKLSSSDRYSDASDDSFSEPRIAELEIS
UniProt O75575: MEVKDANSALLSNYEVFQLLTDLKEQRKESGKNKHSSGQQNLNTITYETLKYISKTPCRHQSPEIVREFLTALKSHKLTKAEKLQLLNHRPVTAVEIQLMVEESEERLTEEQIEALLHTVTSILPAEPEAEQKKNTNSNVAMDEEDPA
UniProt Q9NX08, whole entry: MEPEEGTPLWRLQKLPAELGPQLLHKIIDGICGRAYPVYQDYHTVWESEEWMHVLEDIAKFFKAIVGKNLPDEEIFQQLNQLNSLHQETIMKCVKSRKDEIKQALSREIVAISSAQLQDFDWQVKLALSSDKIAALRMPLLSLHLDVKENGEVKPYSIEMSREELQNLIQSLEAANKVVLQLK
UniProt Q5TZA2: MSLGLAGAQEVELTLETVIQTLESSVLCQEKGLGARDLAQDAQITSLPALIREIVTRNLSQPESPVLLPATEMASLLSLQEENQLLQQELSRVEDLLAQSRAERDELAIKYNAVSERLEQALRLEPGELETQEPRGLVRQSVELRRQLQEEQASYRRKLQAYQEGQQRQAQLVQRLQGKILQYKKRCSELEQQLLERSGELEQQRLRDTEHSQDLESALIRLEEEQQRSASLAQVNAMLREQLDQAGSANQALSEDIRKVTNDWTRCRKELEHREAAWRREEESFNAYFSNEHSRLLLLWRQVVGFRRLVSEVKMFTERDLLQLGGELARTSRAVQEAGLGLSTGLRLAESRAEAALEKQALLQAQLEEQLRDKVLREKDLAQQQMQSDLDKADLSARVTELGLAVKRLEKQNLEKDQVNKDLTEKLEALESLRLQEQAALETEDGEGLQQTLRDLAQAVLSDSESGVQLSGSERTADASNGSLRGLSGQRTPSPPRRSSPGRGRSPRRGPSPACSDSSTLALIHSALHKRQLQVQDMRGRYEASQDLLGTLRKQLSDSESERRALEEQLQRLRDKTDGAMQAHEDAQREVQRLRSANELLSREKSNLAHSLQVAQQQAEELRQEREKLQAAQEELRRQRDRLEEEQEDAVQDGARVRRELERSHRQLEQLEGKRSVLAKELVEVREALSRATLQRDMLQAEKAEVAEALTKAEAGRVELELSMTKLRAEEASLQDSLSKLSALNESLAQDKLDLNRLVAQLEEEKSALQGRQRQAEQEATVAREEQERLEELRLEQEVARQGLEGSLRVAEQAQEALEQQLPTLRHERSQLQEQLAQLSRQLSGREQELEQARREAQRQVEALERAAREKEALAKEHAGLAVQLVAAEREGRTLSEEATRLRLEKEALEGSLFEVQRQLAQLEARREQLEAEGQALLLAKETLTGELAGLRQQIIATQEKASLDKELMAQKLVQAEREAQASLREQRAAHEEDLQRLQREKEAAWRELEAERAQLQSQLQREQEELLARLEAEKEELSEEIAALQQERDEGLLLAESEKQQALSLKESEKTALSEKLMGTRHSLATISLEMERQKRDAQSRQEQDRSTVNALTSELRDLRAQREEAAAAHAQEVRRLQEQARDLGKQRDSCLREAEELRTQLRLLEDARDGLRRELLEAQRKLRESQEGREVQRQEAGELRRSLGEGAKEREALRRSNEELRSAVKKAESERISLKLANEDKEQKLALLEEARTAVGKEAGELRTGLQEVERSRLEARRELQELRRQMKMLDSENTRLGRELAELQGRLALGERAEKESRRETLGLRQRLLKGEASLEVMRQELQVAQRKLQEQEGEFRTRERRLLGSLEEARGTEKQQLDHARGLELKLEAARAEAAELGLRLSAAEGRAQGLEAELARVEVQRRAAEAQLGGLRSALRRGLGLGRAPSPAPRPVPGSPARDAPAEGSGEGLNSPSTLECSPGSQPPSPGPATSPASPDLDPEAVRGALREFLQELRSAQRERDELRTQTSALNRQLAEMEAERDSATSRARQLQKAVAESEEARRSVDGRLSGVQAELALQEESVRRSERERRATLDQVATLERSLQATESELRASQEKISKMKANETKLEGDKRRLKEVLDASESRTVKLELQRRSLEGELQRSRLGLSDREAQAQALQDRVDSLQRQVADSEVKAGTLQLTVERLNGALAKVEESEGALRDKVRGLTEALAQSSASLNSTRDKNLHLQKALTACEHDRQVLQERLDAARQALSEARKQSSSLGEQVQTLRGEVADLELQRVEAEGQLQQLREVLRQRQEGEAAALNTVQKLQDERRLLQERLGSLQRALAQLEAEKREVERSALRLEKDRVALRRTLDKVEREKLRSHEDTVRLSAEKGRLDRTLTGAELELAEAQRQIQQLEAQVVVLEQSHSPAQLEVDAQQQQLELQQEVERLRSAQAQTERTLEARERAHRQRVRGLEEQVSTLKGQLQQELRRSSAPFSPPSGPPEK
UniProt Q9Y678: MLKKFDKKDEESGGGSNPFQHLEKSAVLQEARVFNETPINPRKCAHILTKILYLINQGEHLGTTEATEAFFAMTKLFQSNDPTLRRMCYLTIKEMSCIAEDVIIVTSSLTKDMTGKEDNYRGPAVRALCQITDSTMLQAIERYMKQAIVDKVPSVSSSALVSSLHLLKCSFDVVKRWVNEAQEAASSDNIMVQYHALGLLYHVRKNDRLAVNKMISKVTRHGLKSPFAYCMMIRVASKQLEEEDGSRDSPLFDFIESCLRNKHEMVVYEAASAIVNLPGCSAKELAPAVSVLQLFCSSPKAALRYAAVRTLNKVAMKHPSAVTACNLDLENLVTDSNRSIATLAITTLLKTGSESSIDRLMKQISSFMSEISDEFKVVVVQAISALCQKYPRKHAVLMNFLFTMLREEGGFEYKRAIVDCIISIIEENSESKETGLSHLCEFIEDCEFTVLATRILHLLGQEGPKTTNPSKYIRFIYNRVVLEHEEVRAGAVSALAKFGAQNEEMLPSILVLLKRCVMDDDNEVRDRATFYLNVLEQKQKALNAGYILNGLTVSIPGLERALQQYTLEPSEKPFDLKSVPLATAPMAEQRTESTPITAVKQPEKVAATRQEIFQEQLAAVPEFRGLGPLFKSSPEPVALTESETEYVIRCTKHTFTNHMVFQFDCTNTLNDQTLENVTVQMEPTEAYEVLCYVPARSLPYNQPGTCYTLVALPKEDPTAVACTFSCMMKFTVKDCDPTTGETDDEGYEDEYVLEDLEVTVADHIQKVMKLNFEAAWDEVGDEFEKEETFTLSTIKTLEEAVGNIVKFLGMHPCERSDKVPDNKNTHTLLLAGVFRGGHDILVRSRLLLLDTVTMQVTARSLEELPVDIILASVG
UniProt P24311, whole entry: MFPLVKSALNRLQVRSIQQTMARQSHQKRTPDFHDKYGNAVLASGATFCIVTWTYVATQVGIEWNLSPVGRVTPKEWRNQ
UniProt Q9UJU6: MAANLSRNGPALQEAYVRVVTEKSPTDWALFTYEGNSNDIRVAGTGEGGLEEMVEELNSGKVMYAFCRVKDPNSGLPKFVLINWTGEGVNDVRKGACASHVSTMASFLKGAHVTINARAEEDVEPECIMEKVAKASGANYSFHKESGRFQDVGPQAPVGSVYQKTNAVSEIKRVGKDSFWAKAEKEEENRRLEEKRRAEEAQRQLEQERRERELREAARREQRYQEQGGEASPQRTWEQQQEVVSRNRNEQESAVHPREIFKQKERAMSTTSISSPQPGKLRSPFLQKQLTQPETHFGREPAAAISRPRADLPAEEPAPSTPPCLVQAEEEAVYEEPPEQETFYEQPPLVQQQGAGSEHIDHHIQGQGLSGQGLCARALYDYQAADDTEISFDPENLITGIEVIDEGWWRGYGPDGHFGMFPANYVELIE

Row | Target | dose-dependent thermal stabilisation call
1 | DCPS (UniProt Q96C86) | inactive: 0
2 | DENND4A (UniProt Q7Z401) | inactive: 0
3 | CREBBP (UniProt Q92793) | inactive: 0
4 | COPB1 (UniProt P53618) | inactive: 0
5 | DHX16 (UniProt O60231) | inactive: 0
6 | CPSF4 (UniProt O95639) | inactive: 0
7 | CTDSPL2 (UniProt Q05D32) | inactive: 0
8 | DBT (UniProt P11182) | inactive: 0
9 | CSRP1 (UniProt P21291) | inactive: 0
10 | DERA (UniProt Q9Y315) | inactive: 0
11 | COX3 | inactive: 0
12 | CTBS (UniProt Q01459) | inactive: 0
13 | CTPS2 (UniProt Q9NRF8) | inactive: 0
14 | CRCP (UniProt O75575) | inactive: 0
15 | CRKL (UniProt P46109) | inactive: 0
16 | CWC15 (UniProt Q9P013) | inactive: 0
17 | CTH (UniProt P32929) | inactive: 0
18 | CUGBP1 (UniProt Q92879) | inactive: 0
19 | COMMD8 (UniProt Q9NX08) | inactive: 0
20 | DDX59 (UniProt Q5T1V6) | inactive: 0
21 | CROCC (UniProt Q5TZA2) | inactive: 0
22 | CTCF (UniProt P49711) | inactive: 0
23 | COMMD5 (UniProt Q9GZQ3) | inactive: 0
24 | COPG (UniProt Q9Y678) | inactive: 0
25 | DENND1A (UniProt Q8TEH3) | inactive: 0
26 | CTSW (UniProt P56202) | inactive: 0
27 | COX7B (UniProt P24311) | inactive: 0
28 | DBNL (UniProt Q9UJU6) | inactive: 0

Pulled one by one from the entries so far (two):
Row | Target | dose-dependent thermal stabilisation call
4 | COPB1 (UniProt P53618) | inactive: 0
24 | COPG (UniProt Q9Y678) | inactive: 0

Source: the supplement of paper PMC7666118
